Construct, isoform or probe ends are uncertain for at least one entry. At least one result comes from cells or an extract, where the contact may be indirect. Negatives hold for the conditions tested.
Test system: ligand protein in 125I-labeled human serum (counterpart of the SEQ ID NO:4 encoded protein) (Homo sapiens)
Experiment: binding assay
Conditions: isoG at 23 and 31, isoC at 40; fixed on glass slide; negative control spot on aptamer chip; protein in an extract; protein details: 125I-IODOGEN labeled human serum, SIGMA S7023; single-stranded DNA

TGTAAAACGACGGCCAGTTTCCGGAGTCACGGCTGCGGGCCGTCTGAGCCGTTTGCACGTGTGAAATTGTTATCCGCT [negative control aptamer]
binding result: no binding

— patent US20040115665
